PMC4705812
These are yes or no findings as the source states them, for the method shown. Some entries that bind do so weakly or less than the wild type.

Molecular target: GFP-RCC2 (UniProt Q9P258)
Assay: pull-down; competition binding: GDP-loaded GST-Rac1 on glutathione magnetic beads, 5 µl of a constant GFP-tagged binding protein and increasing volumes of a second one, 50 mM Tris-HCl (pH 7.6), 20 mM MgCl2, 2 hr at 4 °C; both detected by quantitative anti-GFP Western blot; both purified

binding: binds
Substance: GFP-coronin-1C full-length (from UniProt Q9ULV4 1-474)
